No constants are given. Whether binding was seen depends on the method and setting. For part of these data: In cells and extracts the contact can be indirect. Some binding calls cover weakened binding; strength is not graded here. Sequences can lack the tags named with a protein.
Experiments:
[1] = biological target: endogenous Kras (MIA PaCa2 cells) (UniProt P01116); experiment: binding to endogenous Kras in MIA PaCa2 cells (A of FIG. 14), reference for the comparison
[2] = biological target: endogenous Kras (MIA PaCa2 cells) (UniProt P01116); experiment: co-immunoprecipitation with anti-HA antibody from MIA PaCa2 cells
[3] = biological target: endogenous Kras (MIA PaCa2 cells) (UniProt P01116); experiment: binding to endogenous Kras in MIA PaCa2 cells (A of FIG. 14)

| Binder | binding [1] | binding [2] | binding [3] |
| --- | --- | --- | --- |
| s3Flag-scFv-Y13-259-HA (scFv) scFv: MDYKDHDGDYKDHDIDYKDDDDKGSQVQLQQSGGGLVQPGRSLKLSCVVSGFTFSNYGMNWIRQTPGKGLEWVAYISSGSSYLYYAETVKGRFTISRDNAKNTLYLQMTSLRSEDTALYYCARHEGTGTDFFDYWGQGTTVTVSSGGGGSGGGGSGGGGSDIQLTQSPHSLSASLGETVSIECLASEGISNYLAWYQQKPGKSPQLLIYYASSLQDGVPSRFSGSGSGTQFSLKISNMQPEDEGVYYCQQAYKYPSTFGAGTKLEIKYPYDVPDYA | binds | binds |  |
| DE2.0-Y13-259-HA (scFv) scFv: MDEQENDYDEPEVNDENQDYDEGSQVQLQQSGGGLVQPGRSLKLSCVVSGFTFSNYGMNWIRQTPGKGLEWVAYISSGSSYLYYAETVKGRFTISRDNAKNTLYLQMTSLRSEDTALYYCARHEGTGTDFFDYWGQGTTVTVSSGGGGSGGGGSGGGGSDIQLTQSPHSLSASLGETVSIECLASEGISNYLAWYQQKPGKSPQLLIYYASSLQDGVPSRFSGSGSGTQFSLKISNMQPEDEGVYYCQQAYKYPSTFGAGTKLEIKYPYDVPDYA |  |  | binds |
